Laboratory results as given in article PMC10140023.
Results are given in words; binding and its absence hold for the method and conditions named. Binding seen in cells or lysates may run through a third protein. A yes stands for co-enrichment or nearness to the bait. Other partners may have been found.

Sequences of proteins named here, by UniProt entry; tags and fusion partners are left off.
UniProt P28340: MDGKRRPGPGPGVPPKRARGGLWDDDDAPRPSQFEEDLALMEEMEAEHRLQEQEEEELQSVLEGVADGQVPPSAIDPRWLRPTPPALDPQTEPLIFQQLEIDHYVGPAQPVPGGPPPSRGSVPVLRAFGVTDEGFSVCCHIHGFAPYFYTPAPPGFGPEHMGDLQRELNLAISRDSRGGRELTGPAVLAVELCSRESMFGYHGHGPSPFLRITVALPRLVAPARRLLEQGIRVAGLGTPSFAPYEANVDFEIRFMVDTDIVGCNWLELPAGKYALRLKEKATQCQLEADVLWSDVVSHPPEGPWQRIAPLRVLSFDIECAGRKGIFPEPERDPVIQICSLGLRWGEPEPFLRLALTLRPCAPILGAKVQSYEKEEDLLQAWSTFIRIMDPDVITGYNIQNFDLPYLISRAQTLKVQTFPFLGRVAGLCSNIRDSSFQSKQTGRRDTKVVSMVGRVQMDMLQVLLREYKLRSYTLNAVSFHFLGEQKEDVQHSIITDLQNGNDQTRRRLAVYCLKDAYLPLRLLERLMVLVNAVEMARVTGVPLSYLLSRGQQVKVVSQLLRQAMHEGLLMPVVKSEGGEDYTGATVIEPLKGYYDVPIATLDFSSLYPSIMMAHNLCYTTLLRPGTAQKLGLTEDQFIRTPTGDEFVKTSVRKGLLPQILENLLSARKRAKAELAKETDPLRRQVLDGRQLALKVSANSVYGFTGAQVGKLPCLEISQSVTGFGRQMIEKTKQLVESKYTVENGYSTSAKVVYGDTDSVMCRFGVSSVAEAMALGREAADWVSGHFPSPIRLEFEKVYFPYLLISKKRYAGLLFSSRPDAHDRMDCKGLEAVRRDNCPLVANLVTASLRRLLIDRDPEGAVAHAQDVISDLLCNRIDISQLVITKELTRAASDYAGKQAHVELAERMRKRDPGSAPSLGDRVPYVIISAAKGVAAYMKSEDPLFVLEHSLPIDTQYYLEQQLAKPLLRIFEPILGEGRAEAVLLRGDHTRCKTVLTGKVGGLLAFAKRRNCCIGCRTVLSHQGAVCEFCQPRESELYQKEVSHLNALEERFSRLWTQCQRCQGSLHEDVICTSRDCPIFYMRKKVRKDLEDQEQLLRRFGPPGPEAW
UniProt Q969H0: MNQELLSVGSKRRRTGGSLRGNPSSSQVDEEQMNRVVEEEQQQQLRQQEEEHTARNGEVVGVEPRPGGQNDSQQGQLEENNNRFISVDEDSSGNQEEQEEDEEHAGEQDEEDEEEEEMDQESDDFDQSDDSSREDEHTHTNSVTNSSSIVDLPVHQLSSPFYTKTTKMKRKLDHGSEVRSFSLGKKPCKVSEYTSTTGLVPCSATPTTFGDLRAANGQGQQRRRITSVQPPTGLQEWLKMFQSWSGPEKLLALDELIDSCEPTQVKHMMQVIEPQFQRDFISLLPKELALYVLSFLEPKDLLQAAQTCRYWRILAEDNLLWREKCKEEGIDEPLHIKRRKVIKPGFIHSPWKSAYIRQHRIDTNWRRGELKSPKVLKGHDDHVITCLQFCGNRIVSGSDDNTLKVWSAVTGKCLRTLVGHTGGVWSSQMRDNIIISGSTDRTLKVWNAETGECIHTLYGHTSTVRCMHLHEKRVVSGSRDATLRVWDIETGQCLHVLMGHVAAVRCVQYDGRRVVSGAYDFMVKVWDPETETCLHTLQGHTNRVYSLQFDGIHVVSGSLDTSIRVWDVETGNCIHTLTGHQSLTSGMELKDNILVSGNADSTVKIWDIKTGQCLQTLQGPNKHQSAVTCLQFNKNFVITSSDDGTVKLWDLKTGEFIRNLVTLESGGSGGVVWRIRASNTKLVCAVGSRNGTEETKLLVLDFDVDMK

Biological target: Flag-POLD1 (human) (UniProt P28340)
Assay: affinity purification with mass spectrometry; Flag-Vector or Flag-POLD1 transfected into 293T cells for 24 h, immunoprecipitation, LC-MS (Orbitrap Exploris 480), MaxQuant

binding: binds
Substance: FBXW7 (hit of the IP-MS) (from UniProt Q969H0 1-707)
